PubChem BioAssay AID686938 – Drosophila RNAi Screening Center | 2013
The deposit covers about 23,000 reagents; shown is an unselected part of those that have a named target and a result. Of all reagents, 75 (0.33%) were called active. 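Raw plate signals without normalisation; calls rest on plate z-scores that were not deposited; ratio present for only 364 wells.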 Entries without a mark were called inactive. Reagents against one gene are numbered here. Names joined by + are all predicted targets of the reagent. The record does not give: the dose of the treatment.

Assay: 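Looking for CRAC channel components and the factors controlling them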 (primary screen)
Cells: Drosophila S2R+ cells
Reagent: long dsRNA against Drosophila genes, about 0.25 µg dsRNA per well, roughly 10,000 cells
Duration: 5 days of knock-down before the calcium assay
Conditions: thapsigargin (SERCA pump blocker) to empty calcium stores; entry signal taken 4 min after adding it
Measurement: 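Per-well fluo-4 fluorescence in two replicates, unnormalised, measured in resting cells and 4 min after store depletion by the SERCA blocker thapsigargin; ratio of the two present in few wells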
Reading the numbers: calcium entry signal: higher = stronger calcium signal after store depletion; entry to resting ratio: higher = more calcium entry relative to resting level; resting calcium signal: higher = higher resting calcium signal
Units: calcium entry signal in fluorescence units; resting calcium signal in fluorescence units
Call rule: 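Hit if the duplicate-averaged plate z-score for entry over resting signal is under −3; wells with weak total dye signal (Fmax z < −2) or more than 5 off-targets removed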
Meaning of the calls: active = strongly reduced calcium entry; inactive = no strong reduction

target	reagent	calcium entry signal, replicate 1	calcium entry signal, replicate 2	entry to resting ratio	resting calcium signal, replicate 1	resting calcium signal, replicate 2
FAM21	1	3.68e7	3.86e7		1.79e7	1.93e7
AnxB11	1	4.00e7	3.82e7		1.77e7	1.85e7
CG10862	1	2.91e7	3.92e7		1.54e7	1.78e7
CG31176	1	3.66e7	5.00e7		5.23e7	1.94e7
CG31176	2	4.34e7	4.73e7		4.94e7	2.01e7
rictor	1	5.06e7	5.32e7		2.62e7	2.43e7
Shawl	1	4.04e7	6.00e7		1.92e7	2.53e7
Shawl	2	3.85e7	6.29e7		1.83e7	2.75e7
CG30338	1	3.00e7	4.94e7		1.57e7	2.07e7
Mst57Dc	1	4.18e7	4.27e7		2.11e7	1.79e7
Fer1	1	4.19e7	4.23e7		1.90e7	1.96e7
Fer1	2	4.68e7	5.30e7		2.19e7	2.26e7
Cks85A	1	4.45e7	4.23e7		2.18e7	2.04e7
corto	1	2.26e7	4.38e7		1.07e7	1.88e7
corto	2	2.93e7	4.48e7		1.41e7	1.97e7
corto	3	3.13e7	5.89e7		1.54e7	2.76e7
corto	4	4.06e7	3.01e7		2.07e7	1.39e7
NAT1	1	3.19e7	5.07e7		2.49e7	2.66e7
CG5687	1	4.30e7	4.04e7		1.92e7	2.06e7
CG14014	1	3.10e7	2.65e7		1.44e7	1.18e7
CG7196 (retired record)	1	3.32e7	4.04e7		1.64e7	1.69e7
CG7196 (retired record)	2	2.20e7	3.44e7		1.07e7	1.57e7
CG12084	1	3.18e7	2.57e7		1.43e7	1.31e7
Gr59e	1	3.53e7	4.26e7		1.80e7	1.92e7
Esp	1	3.72e7	3.24e7		1.72e7	1.39e7
Gr8a	1	2.96e7	3.87e7		1.52e7	2.03e7
Takl2	1	4.78e7	6.52e7		2.18e7	2.70e7
Rpt3R	1	2.67e7	3.33e7		1.67e7	1.87e7
Rdl	1	5.06e7	5.05e7		2.40e7	2.21e7
Rdl	2	5.68e7	5.07e7		3.76e7	2.04e7
CG11498	1	3.21e7	4.26e7		1.78e7	1.90e7
Nrd1	1	2.38e7	3.09e7		1.29e7	1.50e7
CG34030	1	4.18e7	7.43e7		2.16e7	3.07e7
RASSF8	1	2.77e7	3.59e7		1.42e7	1.78e7
DIP-delta	1	2.98e7	4.32e7		1.55e7	1.93e7
DIP-delta	2	2.79e7	4.80e7		1.34e7	2.11e7
LanB2	1	5.64e7	4.27e7		3.52e7	1.77e7
CG17982	1	2.98e7	3.92e7		1.50e7	1.80e7
JMJD5	1	3.64e7	3.63e7		1.89e7	1.70e7
stum	1	5.07e7	4.59e7		2.24e7	2.10e7
stum	2	4.64e7	4.10e7		1.95e7	1.78e7
Cox11	1	3.88e7	4.00e7		1.87e7	1.64e7
Ir84a	1	2.64e7	2.10e7		1.35e7	1.10e7
CG32590	1	4.12e7	3.42e7		2.11e7	1.50e7
Lint-1 + rtv	1	3.01e7	3.12e7		1.52e7	1.54e7
CG8861	1	3.07e7	4.85e7		1.48e7	2.23e7
CG8861	2	2.14e7	2.04e7		1.14e7	1.19e7
CG7739	1	3.55e7	3.35e7		1.64e7	1.41e7
Hr96	1	4.63e7	4.06e7		1.97e7	1.88e7
Hinfp	1	2.80e7	4.52e7	2	1.42e7	1.79e7
lncRNA:CR43491	1	1.98e7	2.77e7		1.07e7	1.26e7
PIG-C	1	2.92e7	3.50e7		1.54e7	1.68e7
eya	1	4.76e7			2.20e7	
CG13215	1	1.84e7	3.43e7		1.03e7	1.29e7
CG30192	1	3.01e7	4.28e7		1.45e7	4.24e7
SAK	1	2.67e7	4.29e7		1.34e7	1.87e7
SAK	2	3.88e7	3.59e7		2.11e7	1.63e7
TfAP-2	1	3.15e7	4.89e7		1.50e7	2.12e7

Targets above whose target name starts with T or t:
target	reagent	calcium entry signal, replicate 1	calcium entry signal, replicate 2	entry to resting ratio	resting calcium signal, replicate 1	resting calcium signal, replicate 2
Takl2	1	4.78e7	6.52e7		2.18e7	2.70e7
TfAP-2	1	3.15e7	4.89e7		1.50e7	2.12e7
